In article doi:10.1101/2025.02.06.636796:
Residue numbers refer to the chain shown, from its start. These are yes or no findings as the source states them, for the method shown. In cells and extracts the contact can be indirect. Some results given as binding are weak or reduced against the parent protein; the word gives no strength. Sequences can lack the tags named with a protein.

Target: T1, Trim69 wild type, tagged (YFP- or Flag-), of the co-immunoprecipitation (human) (UniProt Q86WT6)
T1 sequence: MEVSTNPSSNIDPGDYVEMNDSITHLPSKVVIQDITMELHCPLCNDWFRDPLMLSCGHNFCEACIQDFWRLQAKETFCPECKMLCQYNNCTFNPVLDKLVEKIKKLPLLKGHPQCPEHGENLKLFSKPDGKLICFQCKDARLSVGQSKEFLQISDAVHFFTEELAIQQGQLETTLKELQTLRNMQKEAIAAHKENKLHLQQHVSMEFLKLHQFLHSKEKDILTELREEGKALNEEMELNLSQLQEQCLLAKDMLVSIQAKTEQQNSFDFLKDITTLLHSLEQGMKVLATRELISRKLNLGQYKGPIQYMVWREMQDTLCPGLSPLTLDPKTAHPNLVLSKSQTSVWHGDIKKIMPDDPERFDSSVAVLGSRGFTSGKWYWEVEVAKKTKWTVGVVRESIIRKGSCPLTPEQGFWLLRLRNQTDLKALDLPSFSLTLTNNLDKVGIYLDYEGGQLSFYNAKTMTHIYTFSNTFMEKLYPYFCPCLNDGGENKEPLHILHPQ
Assay: co-IP

binding: binds
B1: Trim69 SPRY-7A mutant, tagged (YFP- or Flag-), of the co-immunoprecipitation (protein, UniProt Q86WT6 1-500)
chain: T1 sequence with K351A, K352A, R401A, K402A, R417A, R419A, K425A
